Experimental data taken from the supplement of paper PMC12889115.
Some of the results follow. Values are raw readings; no control value is given beside them.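 Primary screen: polymyxin B was added at a level permeabilizing Salmonella outer membranes while sparing inner membranes. DMSO wells, both with and without polymyxin B, established maximum growth. Plate-to-plate variation meant each plate was ranked on its own, and the lowest-OD600 compounds were selected as hits.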

System: Salmonella enterica serovar Typhimurium SL1344
Assay: bacterial growth OD600 after 18 h with compound and polymyxin B; higher = more bacterial growth (less inhibition)
Details: 50 µM, Mueller-Hinton broth

| Compound | bacterial growth OD600 (polymyxin B 0.75 µg/mL) | bacterial growth OD600 (polymyxin B 1 µg/mL) |
| --- | --- | --- |
| Cc1cccc(-n2ccnc2[C@@H]2C[C@H]3CN(c4ccccc4)C(=O)[C@]34CCCN24)c1 | 1.01 |  |
| COc1ccc(-c2nn(-c3ccccc3)cc2CN(C)C(C)c2ccon2)c(F)c1 (stereo not given) |  | 0.336 |
| OCCC1CN(Cc2cnn(-c3cccc(F)c3)c2)CCN1Cc1ccccc1F (stereo not given) |  | 0.954 |
| O=C(NCCCc1ccccc1)C1CC(Cc2cccc(F)c2)=NO1 (stereo not given) | 0.715 |  |
| COc1cc(CN2CCN(Cc3cc(C)cc(C)c3)CC2CCO)cc(OC)c1 (stereo not given) |  | 0.859 |
| CCCn1cc(CN(C)CC2CCCN(CCc3ccc(OC)cc3)C2)c(C)n1 (stereo not given) |  | 0.836 |
| O=C1N(CC2CC2)CCCC1(O)CN1CCC(Cc2ccccc2)CC1 (stereo not given) |  | 0.879 |
| CC(C)CCN1CCOc2ccc(C(C)(O)COc3ccccc3)cc2C1 (stereo not given) | 0.792 |  |
| CCC1CN(CCNC(=O)CCc2c(C)noc2C)Cc2cc(OC)ccc2O1 (stereo not given) | 0.877 |  |
| COCCC(=O)N1CCCC(N2CCN(c3cccc(Cl)c3)CC2)C1 (stereo not given) |  | 0.923 |
| CC(C)CC(=O)Nc1ccnn1C1CCN(Cc2ccc3nsnc3c2)CC1 |  | 1.17 |
| O=C(c1ccccc1F)N1CCC(C2(c3ccccn3)NC(=O)N(CCc3cccs3)C2=O)CC1 (stereo not given) | 0.837 |  |
| Cc1c(C(C)NC(=O)NC(C)C)cnn1-c1cccc2ccccc12 (stereo not given) |  | 0.962 |
| CN(C)c1ccccc1C(=O)N1CCCC(Nc2ccc(F)cc2)C1 (stereo not given) |  | 0.833 |
| CO[C@H]1[C@H](NC(=O)c2ccccn2)c2ccccc2C12CCN(C(=O)C1=CCCC1)CC2 | 0.847 |  |
| CCN1CCN(C2(C(=O)N3CCN4CCCC4C3)Cc3ccccc3C2)CC1 (stereo not given) | 0.947 |  |
| COC(=O)[C@@H]1CCCN1C(=O)Cc1ccc(N2CCC(NCCc3cccs3)CC2)cc1 | 0.792 |  |
| CCOC(=O)C1(Cc2ccccc2F)CCCN(C(=O)C(=O)c2ccco2)C1 (stereo not given) |  | 0.921 |
| CCOc1ccccc1N1CCN(Cc2nc(Cc3ccc(OC)c(OC)c3)no2)CC1 |  | 1.06 |
| CCO[C@H]1[C@H](NC(=O)c2cccnc2)c2ccccc2C12CCN(C(=O)c1ccc(C)cc1C)CC2 | 0.836 |  |
| Cc1ncccc1C(=O)N1CCC(C2CCN(Cc3cccc(F)c3F)CC2)C1 (stereo not given) | 0.809 |  |
| Cc1ccc(C)c(-n2cc(CN(C)CCO)c(-c3ccccc3)n2)c1 |  | 0.933 |
| COCCN1C(=O)CC(CC(=O)N2CCCC2c2ccccc2OC)(c2ccccc2OC)C1=O (stereo not given) | 0.847 |  |
| COC(=O)CCC(=O)N1CCc2c([nH]c3ccccc23)C1c1ccccc1F (stereo not given) |  | 0.019 |
| CN(CCOc1ccccc1)C(=O)Cn1cc(NC(=O)CCC(=O)c2ccccc2)cn1 | 0.715 |  |
| COc1ccccc1OC1CCN(C(=O)c2ccc(-n3cc(NC(=O)c4ccoc4)cn3)cc2)CC1 | 0.698 |  |
| COCCN(Cc1ccccn1)C(Cc1ccccc1)C1CCN(Cc2cccc(OC)c2O)CC1 (stereo not given) | 0.81 |  |
| O[C@@H]1CN(Cc2c(F)cccc2Cl)CC[C@H]1N1CCN(c2ccccn2)CC1 | 0.826 |  |
| COc1ccc(/C=C/C(=O)N2CCCC(N(C)Cc3ccccc3)C2)cc1OC (stereo not given) |  | 0.924 |
| Cc1c[nH]c(CN(C)C(=O)CC(c2cccc(O)c2)c2ccccc2Cl)n1 (stereo not given) |  | 0.764 |

Five structures already listed, arranged by SMILES length, smallest number first:

| Compound | bacterial growth OD600 (polymyxin B 0.75 µg/mL) | bacterial growth OD600 (polymyxin B 1 µg/mL) |
| --- | --- | --- |
| CN(C)c1ccccc1C(=O)N1CCCC(Nc2ccc(F)cc2)C1 (stereo not given) |  | 0.833 |
| CC(C)CCN1CCOc2ccc(C(C)(O)COc3ccccc3)cc2C1 (stereo not given) | 0.792 |  |
| Cc1ccc(C)c(-n2cc(CN(C)CCO)c(-c3ccccc3)n2)c1 |  | 0.933 |
| CCCn1cc(CN(C)CC2CCCN(CCc3ccc(OC)cc3)C2)c(C)n1 (stereo not given) |  | 0.836 |
| COCCN(Cc1ccccn1)C(Cc1ccccc1)C1CCN(Cc2cccc(OC)c2O)CC1 (stereo not given) | 0.81 |  |
